Earlier results in publication PMC2751796 (Pharmacology & therapeutics, 2009).

Test system: MRPs, organic anion transporters
Conditions: rats; ref Tunblad et al., 2003; cited from earlier work

CN1CC[C@]23c4c5ccc(O)c4O[C@H]2[C@@H](O)C=C[C@H]3[C@H]1C5 [Morphine]
Increase of steady-state brain-to-blood ratio with probenecid: 1.3 fold
